We go through 4 molecules from article doi:10.1101/266833 (bioRxiv, 2018).

In assay [1] the target is T1, TAP-Upf1-CH (2-208) (S. cerevisiae) (UniProt P30771).
T1 sequence: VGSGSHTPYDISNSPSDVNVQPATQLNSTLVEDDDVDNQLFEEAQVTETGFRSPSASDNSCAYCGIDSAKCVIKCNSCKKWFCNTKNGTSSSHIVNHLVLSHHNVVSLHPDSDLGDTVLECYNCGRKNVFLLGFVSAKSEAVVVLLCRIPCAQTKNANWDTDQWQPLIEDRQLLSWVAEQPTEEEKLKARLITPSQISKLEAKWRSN
Kind of assay: co-IP.

Assay [2] has as its target T2, Upf1-TAP (S. cerevisiae) (UniProt P30771).
T2 sequence: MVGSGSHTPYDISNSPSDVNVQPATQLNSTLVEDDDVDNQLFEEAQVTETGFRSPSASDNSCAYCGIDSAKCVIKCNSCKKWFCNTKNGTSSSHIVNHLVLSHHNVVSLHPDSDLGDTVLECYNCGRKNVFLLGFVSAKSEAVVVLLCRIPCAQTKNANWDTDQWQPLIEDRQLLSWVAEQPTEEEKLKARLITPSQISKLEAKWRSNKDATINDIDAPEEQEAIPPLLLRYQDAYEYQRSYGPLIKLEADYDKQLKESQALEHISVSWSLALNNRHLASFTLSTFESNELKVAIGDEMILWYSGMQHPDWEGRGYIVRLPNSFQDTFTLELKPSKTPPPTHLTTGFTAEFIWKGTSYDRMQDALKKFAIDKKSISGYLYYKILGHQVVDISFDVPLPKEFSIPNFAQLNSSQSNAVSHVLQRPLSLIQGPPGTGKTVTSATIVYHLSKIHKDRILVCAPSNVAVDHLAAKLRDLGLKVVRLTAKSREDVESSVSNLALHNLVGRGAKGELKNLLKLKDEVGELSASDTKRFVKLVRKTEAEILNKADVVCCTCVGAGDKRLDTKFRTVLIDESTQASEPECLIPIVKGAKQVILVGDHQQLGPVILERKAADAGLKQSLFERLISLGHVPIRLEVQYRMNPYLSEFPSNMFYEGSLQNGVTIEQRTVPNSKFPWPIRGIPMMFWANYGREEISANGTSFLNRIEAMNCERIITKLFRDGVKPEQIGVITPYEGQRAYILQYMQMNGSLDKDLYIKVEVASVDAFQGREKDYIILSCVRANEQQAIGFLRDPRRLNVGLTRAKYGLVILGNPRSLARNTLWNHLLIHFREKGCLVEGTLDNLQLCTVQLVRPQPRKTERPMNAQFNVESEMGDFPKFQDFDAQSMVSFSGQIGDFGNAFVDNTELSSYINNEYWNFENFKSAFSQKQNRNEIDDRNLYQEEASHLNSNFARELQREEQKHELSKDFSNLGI
Put plainly: co-IP.

Assay [3] addresses T3, TAP-Upf1-FL (S. cerevisiae) (UniProt P30771).
T3 sequence: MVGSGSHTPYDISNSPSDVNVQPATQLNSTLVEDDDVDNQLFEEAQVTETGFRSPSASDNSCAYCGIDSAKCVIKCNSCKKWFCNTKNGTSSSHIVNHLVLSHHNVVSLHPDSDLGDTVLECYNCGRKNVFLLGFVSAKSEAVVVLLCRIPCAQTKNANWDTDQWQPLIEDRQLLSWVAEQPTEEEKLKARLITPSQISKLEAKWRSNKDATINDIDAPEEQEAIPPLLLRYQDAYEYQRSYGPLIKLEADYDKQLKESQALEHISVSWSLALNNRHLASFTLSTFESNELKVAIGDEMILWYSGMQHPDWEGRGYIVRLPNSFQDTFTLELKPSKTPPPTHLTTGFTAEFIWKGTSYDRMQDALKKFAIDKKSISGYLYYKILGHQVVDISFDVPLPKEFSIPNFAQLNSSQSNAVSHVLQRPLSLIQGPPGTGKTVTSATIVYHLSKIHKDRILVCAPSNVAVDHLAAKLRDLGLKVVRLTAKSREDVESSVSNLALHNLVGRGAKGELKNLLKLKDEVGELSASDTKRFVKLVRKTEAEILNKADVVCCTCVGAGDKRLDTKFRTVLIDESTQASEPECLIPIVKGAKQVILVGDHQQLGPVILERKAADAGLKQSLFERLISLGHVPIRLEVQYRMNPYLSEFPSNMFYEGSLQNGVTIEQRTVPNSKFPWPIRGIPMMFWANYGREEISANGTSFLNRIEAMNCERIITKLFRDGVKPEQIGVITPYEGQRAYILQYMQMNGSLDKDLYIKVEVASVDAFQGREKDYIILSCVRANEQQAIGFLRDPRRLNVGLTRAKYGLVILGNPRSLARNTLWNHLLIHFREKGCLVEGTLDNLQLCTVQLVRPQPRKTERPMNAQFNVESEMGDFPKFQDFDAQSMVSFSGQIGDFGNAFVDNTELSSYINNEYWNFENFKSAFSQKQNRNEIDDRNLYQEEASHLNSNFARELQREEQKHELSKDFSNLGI
Kind of assay: co-IP.

Assay [4] addresses T4, TAP-Upf1-HD-Cter (208-971) (S. cerevisiae) (UniProt P30771).
T4 sequence: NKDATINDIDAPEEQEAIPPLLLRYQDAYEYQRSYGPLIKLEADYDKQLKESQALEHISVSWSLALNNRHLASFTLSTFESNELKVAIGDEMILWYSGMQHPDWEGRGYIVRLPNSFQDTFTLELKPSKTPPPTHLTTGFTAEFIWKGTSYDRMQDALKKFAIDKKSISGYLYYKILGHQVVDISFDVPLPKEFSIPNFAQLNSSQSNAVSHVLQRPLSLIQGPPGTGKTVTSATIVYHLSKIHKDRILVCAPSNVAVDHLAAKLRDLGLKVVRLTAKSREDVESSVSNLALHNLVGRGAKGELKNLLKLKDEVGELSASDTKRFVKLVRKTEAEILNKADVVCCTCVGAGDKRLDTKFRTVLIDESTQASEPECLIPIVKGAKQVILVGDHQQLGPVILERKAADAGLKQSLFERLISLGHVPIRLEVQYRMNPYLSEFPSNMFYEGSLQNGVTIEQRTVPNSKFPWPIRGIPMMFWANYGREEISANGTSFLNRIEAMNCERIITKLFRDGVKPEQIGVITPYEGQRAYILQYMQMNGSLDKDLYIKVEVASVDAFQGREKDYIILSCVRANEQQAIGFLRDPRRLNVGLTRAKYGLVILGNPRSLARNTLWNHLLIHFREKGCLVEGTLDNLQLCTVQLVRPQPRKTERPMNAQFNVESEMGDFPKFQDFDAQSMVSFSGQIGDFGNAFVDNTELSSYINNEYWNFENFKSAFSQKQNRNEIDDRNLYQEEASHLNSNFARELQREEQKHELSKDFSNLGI
Put plainly: co-IP.

Assay [5] has as its target T2, Upf1-TAP (S. cerevisiae). Kind of assay: co-IP. This is another data set of the same source.
In a further assay the target is T5, CBP-Nmd4 (S. cerevisiae) (UniProt Q12129).
T5 sequence: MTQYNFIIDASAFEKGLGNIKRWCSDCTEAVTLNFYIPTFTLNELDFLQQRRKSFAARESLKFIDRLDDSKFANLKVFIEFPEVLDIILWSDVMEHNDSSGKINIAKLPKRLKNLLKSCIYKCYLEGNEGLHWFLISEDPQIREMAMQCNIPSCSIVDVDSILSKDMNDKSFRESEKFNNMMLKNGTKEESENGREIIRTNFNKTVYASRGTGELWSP
Put plainly: pull-down.

Like-named read-outs stand apart in the source and are kept apart here. Results are given in words; binding and its absence hold for the method and conditions named. For some of these results: In cells and extracts the contact can be indirect. Some results given as binding are weak or reduced against the parent protein; the word gives no strength. For some of these results: Tags and fused reporters may be left off the sequences shown.

B1: CBP-Nmd4 (natural protein, S. cerevisiae, UniProt Q12129 1-218, looked up)
chain: MTQYNFIIDASAFEKGLGNIKRWCSDCTEAVTLNFYIPTFTLNELDFLQQRRKSFAARESLKFIDRLDDSKFANLKVFIEFPEVLDIILWSDVMEHNDSSGKINIAKLPKRLKNLLKSCIYKCYLEGNEGLHWFLISEDPQIREMAMQCNIPSCSIVDVDSILSKDMNDKSFRESEKFNNMMLKNGTKEESENGREIIRTNFNKTVYASRGTGELWSP
Consider B1, for which the binding entry in assay [1] is “no binding”; in the assay with Upf1-TAP (S. cerevisiae) [2], “binds”; in assay [3], “binds”; in assay [4], “binds”; in the assay with Upf1-TAP (S. cerevisiae) [5] it was “binds”.

B2: hUpf1-HD (295-914) (domain or fragment, UniProt Q92900-2 295-914)
chain: RYEDAYQYQNIFGPLVKLEADYDKKLKESQTQDNITVRWDLGLNKKRIAYFTLPKTDSDMRLMQGDEICLRYKGDLAPLWKGIGHVIKVPDNYGDEIAIELRSSVGAPVEVTHNFQVDFVWKSTSFDRMQSALKTFAVDETSVSGYIYHKLLGHEVEDVIIKCQLPKRFTAQGLPDLNHSQVYAVKTVLQRPLSLIQGPPGTGKTVTSATIVYHLARQGNGPVLVCAPSNIAVDQLTEKIHQTGLKVVRLCAKSREAIDSPVSFLALHNQIRNMDSMPELQKLQQLKDETGELSSADEKRYRALKRTAERELLMNADVICCTCVGAGDPRLAKMQFRSILIDESTQATEPECMVPVVLGAKQLILVGDHCQLGPVVMCKKAAKAGLSQSLFERLVVLGIRPIRLQVQYRMHPALSAFPSNIFYEGSLQNGVTAADRVKKGFDFQWPQPDKPMFFYVTQGQEEIASSGTSYLNRTEAANVEKITTKLLKAGAKPDQIGIITPYEGQRSYLVQYMQFSGSLHTKLYQEVEIASVDAFQGREKDFIILSCVRANEHQGIGFLNDPRRLNVALTRARYGVIIVGNPKALSKQPLWNHLLNYYKEQKVLVEGPLNNLRESLMQFS
B2: in the assay with CBP-Nmd4 (S. cerevisiae), the binding entry was “no binding (tested: 2μg of each protein)”.

B3: Ebs1-HA (protein, UniProt Q03466 1-884)
chain: MEPSNTQKEDLPTAFNGIKSQLNSILKSNQLFQDYALLNGFLAFVHSKLNAAILTSIESQCGKSFAADLDSFDQSSISSILDFSWESVHYPIFKWFQMWRNYILFEKENKKQQTKFIDFRKMNSKMLKFFKTVQNFYVNVINTVYKKYDISVLLPKRIIQDLKLSDIENTTNVGDILAVKTFNSSSPLAHLIPTLFHRCLLFLGTAYRYKTLLEEISNKYSISNFKKSLDFFRLASLVLPSAGETYSQAGAIFLQTGNLGIAVFNFVKGMMTKMPSPVSIKNFGALMVDNKSSLNRSLHTTIMNTYLQESKGPRTPAKEILEFYFLGLFGSVWSPTSWRDDTKPNQLNNGIKLRHLENALYETMSARYLNNIKTIFHNLIITIGGFHLLLKRRSDVSAKTLKDLRSNELDYLNFAFKYIAHILNDIVKESWSENPEVSEILGMVRIINCWIKANPMVLQYSQSNLEFVNALAYLINDIVKKKPSPSFSITEHIPKRTYWFEEDLMVKGLSFVNFQLSDFDDYEKILEMDHSLDRLIGNPPLCDKLSASSEMLLRLQAVVNISSQLLQNNNCGVEWSDNKSRYIFNKKIGFKETVKNSMKTSKQSNEKAKLQRKNKPSTTNGSISMADLERQMRSSSLDSFSPTMGYSGSSVPMAPDTFNVKPSGTITGNKVNVELLKIELSGQNADGAITNISPGYSNAAISSSNSTDESSFDLNNILSSMQQKHAEKSFAKSMQGVNEQIPANDVCHQAQRPMQGGLYSSQQPSSMSSLNSAYQNASMPPSASMVSYPYPFLNQQGQGVFPPYNAQNLQWQSEAYSLKSMNFANPTWLGDQYQTSAPSSAYAQAQRQMFQQPMQQDVGKYMQFPFDAQSNTDSMRGNSRNNMF
Regarding B3, the binding result in the assay with Upf1-TAP (S. cerevisiae) [2] and with Upf1-TAP (S. cerevisiae) [5] was “binds” each time.

B4: Edc3-HA (protein, UniProt P39998 1-551)
chain: MSQFVGFGVQVELKDGKLIQGKIAKATSKGLTLNDVQFGDGGKSQAFKVRASRLKDLKVLTVASQSGKRKQQRQQQQQNDYNQNRGEHIDWQDDDVSKIKQQEDFDFQRNLGMFNKKDVFAQLKQNDDILPENRLQGHNRKQTQLQQNNYQNDELVIPDAKKDSWNKISSRNEQSTHQSQPQQDAQDDLVLEDDEHEYDVDDIDDPKYLPITQSLNITHLIHSATNSPSINDKTKGTVINDKDQVLAKLGQMIISQSRSNSTSLPAANKQTTIRSKNTKQNIPMATPVQLLEMESITSEFFSINSAGLLENFAVNASFFLKQKLGGRARLRLQNSNPEPLVVILASDSNRSGAKALALGRHLCQTGHIRVITLFTCSQNELQDSMVKKQTDIYKKCGGKIVNSVSSLESAMETLNSPVEIVIDAMQGYDCTLSDLAGTSEVIESRIKSMISWCNKQRGSTKVWSLDIPNGFDAGSGMPDIFFSDRIEATGIICSGWPLIAINNLIANLPSLEDAVLIDIGIPQGAYSQRTSLRKFQNCDLFVTDGSLLLDL
On to B4, for which the binding entry with Upf1-TAP (S. cerevisiae) [2] and in the assay with Upf1-TAP (S. cerevisiae) [5] was “binds” throughout.
